Results are given in words; binding and its absence hold for the method and conditions named. Some entries that bind do so weakly or less than the wild type.
Biological target: Granzyme B (GzmB) (UniProt P10144)
Assay: SDS-PAGE / western blot of T cell lysates probed with anti-SB9 antibody 7D8

Amino acid sequences for entries named in this document (tags omitted). Residues count along the entry.
UniProt P10144, residues 21-247: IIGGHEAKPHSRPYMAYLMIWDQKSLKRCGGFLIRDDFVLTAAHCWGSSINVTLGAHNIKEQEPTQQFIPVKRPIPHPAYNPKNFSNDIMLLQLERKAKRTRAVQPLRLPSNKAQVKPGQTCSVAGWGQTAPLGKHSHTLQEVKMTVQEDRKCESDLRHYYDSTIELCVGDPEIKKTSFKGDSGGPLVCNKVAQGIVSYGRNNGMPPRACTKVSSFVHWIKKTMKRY

B1: SERPINB9 (SB9) (protein)
chain: METLSNASGTFAIRLLKILCQDNPSHNVFCSPVSISSALAMVLLGAKGNTATQMAQALSLNTEEDIHRAFQSLLTEVNKAGTQYLLRTANRLFGEKTCQFLSTFKESCLQFYHAELKELSFIRAAEESRKHINTWVSKKTEGKIEELLPGSSIDAETRLVLVNAIYFKGKWNEPFDETYTREMPFKINQEEQRPVQMMYQEATFKLAHVGEVRAQLLELPYARKELSLLVLLPDDGVELSTVEKSLTFEKLTAWTKPDCMKSTEVEVLLPKFKLQEDYDMESVLRHLGIVDAFQQGKADLSAMSAERDLCLSKFVHKSFVEVNEEGTEAAAASSCFVVAECCMESGPRFCADHPFLFFIRHNRANSILFCGRFSSP
binding: binds
